Measurements reported in patent US20190248889A1 (Genentech, published 2019).
These are yes or no findings as the source states them, for the method shown. Some entries that bind do so weakly or less than the wild type.

Legend:
[1] = biological target: T1, human LgR5 (human, UniProt O75473 22-907); assay: flow cytometry on xenograft tumor cells (figure legend)
T1 construct: This one molecule is used for transfected 293 cells and for endogenous LgR5 in human cells and tissues; also called leucine-rich repeat-containing G protein-coupled receptor 5
T1 sequence: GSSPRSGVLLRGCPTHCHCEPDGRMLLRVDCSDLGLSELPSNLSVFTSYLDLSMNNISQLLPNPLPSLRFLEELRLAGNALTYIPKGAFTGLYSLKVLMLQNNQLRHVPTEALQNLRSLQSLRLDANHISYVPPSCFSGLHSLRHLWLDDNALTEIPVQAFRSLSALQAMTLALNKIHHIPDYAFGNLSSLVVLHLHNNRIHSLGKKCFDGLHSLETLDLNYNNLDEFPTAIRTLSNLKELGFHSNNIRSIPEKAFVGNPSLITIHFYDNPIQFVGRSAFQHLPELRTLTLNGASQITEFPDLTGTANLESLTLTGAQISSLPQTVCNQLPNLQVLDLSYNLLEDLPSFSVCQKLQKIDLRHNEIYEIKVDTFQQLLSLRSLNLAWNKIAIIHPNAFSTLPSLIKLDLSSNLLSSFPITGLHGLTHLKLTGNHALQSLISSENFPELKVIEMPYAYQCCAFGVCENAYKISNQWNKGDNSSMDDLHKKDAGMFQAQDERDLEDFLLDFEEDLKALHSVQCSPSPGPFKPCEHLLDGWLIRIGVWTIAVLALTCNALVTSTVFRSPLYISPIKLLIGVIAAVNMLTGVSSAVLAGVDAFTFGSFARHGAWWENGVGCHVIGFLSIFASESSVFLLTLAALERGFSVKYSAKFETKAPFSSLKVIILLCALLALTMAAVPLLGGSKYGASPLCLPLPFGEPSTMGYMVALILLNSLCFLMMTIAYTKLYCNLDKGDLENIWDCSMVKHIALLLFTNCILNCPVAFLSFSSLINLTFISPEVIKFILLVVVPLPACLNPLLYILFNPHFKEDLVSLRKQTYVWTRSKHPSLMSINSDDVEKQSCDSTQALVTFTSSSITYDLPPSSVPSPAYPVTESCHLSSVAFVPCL

[2] = biological target: T1, human LgR5; assay: flow cytometry on cells from LoVo X 1.1 and D5124 xenograft tumors
[3] = biological target: T1, human LgR5; assay: flow cytometry on dissociated D5124 xenograft tumor cells, anti-human secondary antibody conjugated to PE
[4] = biological target: T1, human LgR5; assay: flow cytometry on dissociated LoVo X 1.1 xenograft tumor cells, anti-human secondary antibody conjugated to PE

Measured: binding

B1: antibody huYW353 (antibody, human IgG1, kappa, V domains shown)
VH: EVQLVESGGGLVQPGGSLRLSCAASGFTFTSYSISWVRQAPGKGLEWVAEIYPPGGYTDYADSVKGRFTISADTSKNTAYLQMNSLRAEDTAVYYCAKARLFFDYWGQGTLVTVSS
VL: DIQMTQSPSSLSASVGDRVTITCRASQDVSTAVAWYQQKPGKAPKLLIYSASFLYSGVPSRFSGSGSGTDFTLTISSLQPEDFATYYCQQSYTTPPTFGQGTKVEIKR
binds: all assays above
